# Data as given in the supplement of paper PMC8728848.
# Some of the results follow.
# B1: Langerin K299A/K313A (Homo sapiens), Q9UJ71 (protein)
# chain: STLNAQIPELKSDLEKASALNTKIRALQGSLENMSKLLKRQNDILQVVSQGWKYFKGNFYYFSLIPKTWYSAEQFCVSRNSHLTSVTSESEQEFLYKTAGGLIYWIGLTKAGMEGDWSWVDDTPFNKVQSARFWIPGEPNNAGNNEHCGNIAAPSLQAWNDAPCDATFLFICKRPYVPSEP
# Tests used:
# Test in all cases: glycan array binding signal (z-score within array); higher = stronger binding
# Settings in all cases: glycan notation: IUPAC condensed, linker removed
# [1] = target: GlcNAc(b1-4)GlcNAc(b1-4)GlcNAc(b1-4)GlcNAc(b1-4)GlcNAc(b1-4)GlcNAc
# In short: (§1)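 Glycan array data were curated from 3228 arrays in the Consortium for Functional Glycomics database and kept only where the protein sequence was available. Glycan names were converted to IUPAC-condensed notation, and columns mapping to the same glycan were averaged. The binding signal is a within-array Z-score, averaged across arrays of the same protein sequence at different concentrations or buffers and across linkers. Negative Z-scores can be read as non-binding.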
# [2] = target: GlcNAc(b1-4)[GlcNAc(b1-6)]GalNAc
# In short: as §1
# [3] = target: GlcNAc(b1-6)Gal(b1-4)GlcNAc
# In short: as §1
# GlcNAc(b1-6)GalNAc = target: GlcNAc(b1-6)GalNAc
# In short: as §1
# [4] = target: GlcNAc6S(b1-3)Gal(b1-4)GlcNAc
# In short: as §1
# Kdn(a2-3)Gal(b1-3)GalNAc = target: Kdn(a2-3)Gal(b1-3)GalNAc
# In short: as §1
# Kdn(a2-3)Gal(b1-3)GlcNAc = target: Kdn(a2-3)Gal(b1-3)GlcNAc
# In short: as §1
# Kdn(a2-3)Gal(b1-4)Glc = target: Kdn(a2-3)Gal(b1-4)Glc
# In short: as §1
# Kdn(a2-3)Gal(b1-4)GlcNAc = target: Kdn(a2-3)Gal(b1-4)GlcNAc
# In short: as §1
# [5] = target: Kdn(a2-3)Gal(b1-4)[Fuc(a1-3)]GlcNAc
# In short: as §1
# Kdn(a2-6)Gal(b1-4)GlcNAc = target: Kdn(a2-6)Gal(b1-4)GlcNAc
# In short: as §1
# [6] = target: Man(a1-2)Man(a1-2)Man(a1-3)Man
# In short: as §1
# [7] = target: Man(a1-2)Man(a1-2)Man(a1-6)[Man(a1-3)]Man
# In short: as §1
# Man(a1-2)Man(a1-3)Man = target: Man(a1-2)Man(a1-3)Man
# In short: as §1
# [8] = target: Man(a1-2)Man(a1-3)[Man(a1-2)Man(a1-6)]Man
# In short: as §1
# [9] = target: Man(a1-2)Man(a1-3)[Man(a1-2)Man(a1-6)]Man(a1-6)[Man(a1-2)Man(a1-2)Man(a1-3)]Man
# In short: as §1
# [10] = target: Man(a1-2)Man(a1-3)[Man(a1-2)Man(a1-6)]Man(a1-6)[Man(a1-2)Man(a1-2)Man(a1-3)]Man(b1-4)GlcNAc(b1-4)GlcNAc
# In short: as §1
# [11] = target: Man(a1-2)Man(a1-3)[Man(a1-6)]Man(a1-6)[Man(a1-2)Man(a1-3)]Man(b1-4)GlcNAc(b1-4)GlcNAc
# In short: as §1
# [12] = target: Man(a1-2)Man(a1-6)[Man(a1-3)]Man(a1-6)[Man(a1-2)Man(a1-2)Man(a1-3)]Man
# In short: as §1
# [13] = target: Man(a1-2)Man(a1-6)[Man(a1-3)]Man(a1-6)[Man(a1-2)Man(a1-2)Man(a1-3)]Man(b1-4)GlcNAc(b1-4)GlcNAc
# In short: as §1
# Man(a1-3)[Man(a1-6)]Man = target: Man(a1-3)[Man(a1-6)]Man
# In short: as §1
# [14] = target: Man(a1-3)[Man(a1-6)]Man(a1-6)[Man(a1-2)Man(a1-3)]Man(b1-4)GlcNAc(b1-4)GlcNAc
# In short: as §1
# [15] = target: Man(a1-3)[Man(a1-6)]Man(a1-6)[Man(a1-3)]Man
# In short: as §1
# [16] = target: Man(a1-3)[Man(a1-6)]Man(a1-6)[Man(a1-3)]Man(b1-4)GlcNAc(b1-4)GlcNAc
# In short: as §1
# [17] = target: Man(a1-3)[Man(a1-6)]Man(b1-4)GlcNAc(b1-4)GlcNAc
# In short: as §1
# [18] = target: Man(a1-3)[Man(a1-6)]Man(b1-4)GlcNAc(b1-4)[Fuc(a1-6)]GlcNAc
# In short: as §1
# Man(a1-6)Man = target: Man(a1-6)Man
# In short: as §1
# Man(b1-4)GlcNAc = target: Man(b1-4)GlcNAc
# In short: as §1
# MurNAc(b1-4)GlcNAc = target: MurNAc(b1-4)GlcNAc
# In short: as §1
# Neu5Ac(a2-3)Gal = target: Neu5Ac(a2-3)Gal
# In short: as §1
# [19] = target: Neu5Ac(a2-3)Gal(b1-3)GalNAc
# In short: as §1
# [20] = target: Neu5Ac(a2-3)Gal(b1-3)GalNAc(b1-3)Gal(a1-4)Gal(b1-4)Glc
# In short: as §1
# [21] = target: Neu5Ac(a2-3)Gal(b1-3)GalNAc(b1-4)[Neu5Ac(a2-3)]Gal(b1-4)Glc
# In short: as §1
# [22] = target: Neu5Ac(a2-3)Gal(b1-3)GalNAc(b1-4)[Neu5Ac(a2-8)Neu5Ac(a2-3)]Gal(b1-4)Glc
# In short: as §1
# [23] = target: Neu5Ac(a2-3)Gal(b1-3)GalNAc6S
# In short: as §1
# [24] = target: Neu5Ac(a2-3)Gal(b1-3)GlcNAc
# In short: as §1
# [25] = target: Neu5Ac(a2-3)Gal(b1-3)GlcNAc(b1-2)Man
# In short: as §1
# [26] = target: Neu5Ac(a2-3)Gal(b1-3)GlcNAc(b1-2)Man(a1-3)[GlcNAc(b1-4)][Neu5Ac(a2-3)Gal(b1-3)GlcNAc(b1-2)Man(a1-6)]Man(b1-4)GlcNAc(b1-4)GlcNAc
# In short: as §1
# [27] = target: Neu5Ac(a2-3)Gal(b1-3)GlcNAc(b1-2)Man(a1-3)[Neu5Ac(a2-3)Gal(b1-3)GlcNAc(b1-2)Man(a1-6)]Man(b1-4)GlcNAc(b1-4)GlcNAc
# In short: as §1
# [28] = target: Neu5Ac(a2-3)Gal(b1-3)GlcNAc(b1-3)Gal(b1-3)GlcNAc
# In short: as §1
# [29] = target: Neu5Ac(a2-3)Gal(b1-3)GlcNAc(b1-3)Gal(b1-4)GlcNAc
# In short: as §1
# [30] = target: Neu5Ac(a2-3)Gal(b1-3)GlcNAc(b1-3)GalNAc
# In short: as §1
# [31] = target: Neu5Ac(a2-3)Gal(b1-3)GlcNAc(b1-4)Gal(b1-4)Glc
# In short: as §1
# [32] = target: Neu5Ac(a2-3)Gal(b1-3)GlcNAc(b1-6)GalNAc
# In short: as §1
# [33] = target: Neu5Ac(a2-3)Gal(b1-3)GlcNAc6S
# In short: as §1
binder,measurement,setting,value
B1,glycan array binding signal (z-score),[1],-1.14
same,glycan array binding signal (z-score),[2],-1.13
same,glycan array binding signal (z-score),[3],-1.18
same,glycan array binding signal (z-score),GlcNAc(b1-6)GalNAc,-0.107
same,glycan array binding signal (z-score),[4],0.155
same,glycan array binding signal (z-score),Kdn(a2-3)Gal(b1-3)GalNAc,2.07
same,glycan array binding signal (z-score),Kdn(a2-3)Gal(b1-3)GlcNAc,-0.288
same,glycan array binding signal (z-score),Kdn(a2-3)Gal(b1-4)Glc,0.422
same,glycan array binding signal (z-score),Kdn(a2-3)Gal(b1-4)GlcNAc,0.831
same,glycan array binding signal (z-score),[5],1.44
same,glycan array binding signal (z-score),Kdn(a2-6)Gal(b1-4)GlcNAc,0.407
same,glycan array binding signal (z-score),[6],0.605
same,glycan array binding signal (z-score),[7],-0.059
same,glycan array binding signal (z-score),Man(a1-2)Man(a1-3)Man,-1.07
same,glycan array binding signal (z-score),[8],-0.254
same,glycan array binding signal (z-score),[9],-0.4
same,glycan array binding signal (z-score),[10],-1.1
same,glycan array binding signal (z-score),[11],-0.565
same,glycan array binding signal (z-score),[12],0.338
same,glycan array binding signal (z-score),[13],0.2
same,glycan array binding signal (z-score),Man(a1-3)[Man(a1-6)]Man,-0.537
same,glycan array binding signal (z-score),[14],-0.191
same,glycan array binding signal (z-score),[15],0.251
same,glycan array binding signal (z-score),[16],-0.582
same,glycan array binding signal (z-score),[17],-0.611
same,glycan array binding signal (z-score),[18],0.391
same,glycan array binding signal (z-score),Man(a1-6)Man,-0.627
same,glycan array binding signal (z-score),Man(b1-4)GlcNAc,-0.283
same,glycan array binding signal (z-score),MurNAc(b1-4)GlcNAc,-0.05
same,glycan array binding signal (z-score),Neu5Ac(a2-3)Gal,-0.735
same,glycan array binding signal (z-score),[19],-0.174
same,glycan array binding signal (z-score),[20],-0.646
same,glycan array binding signal (z-score),[21],-0.356
same,glycan array binding signal (z-score),[22],0.052
same,glycan array binding signal (z-score),[23],-0.289
same,glycan array binding signal (z-score),[24],-0.504
same,glycan array binding signal (z-score),[25],1.93
same,glycan array binding signal (z-score),[26],-0.553
same,glycan array binding signal (z-score),[27],0.863
same,glycan array binding signal (z-score),[28],-0.682
same,glycan array binding signal (z-score),[29],-0.666
same,glycan array binding signal (z-score),[30],-0.354
same,glycan array binding signal (z-score),[31],0.213
same,glycan array binding signal (z-score),[32],-0.402
same,glycan array binding signal (z-score),[33],-0.784

# Random excerpt: three records from the list
binder,measurement,setting,value
B1,glycan array binding signal (z-score),[7],-0.059
same,glycan array binding signal (z-score),[14],-0.191
same,glycan array binding signal (z-score),[18],0.391
